Publication PMC4559392
These are yes or no findings as the source states them, for the method shown. Binding seen in cells or lysates may run through a third protein. Some results given as binding are weak or reduced against the parent protein; the word gives no strength.

Sequences of proteins named here, by UniProt entry; tags and fusion partners are left off. A change or cut given only in a name is not applied to a line headed by its entry.
UniProt P51592: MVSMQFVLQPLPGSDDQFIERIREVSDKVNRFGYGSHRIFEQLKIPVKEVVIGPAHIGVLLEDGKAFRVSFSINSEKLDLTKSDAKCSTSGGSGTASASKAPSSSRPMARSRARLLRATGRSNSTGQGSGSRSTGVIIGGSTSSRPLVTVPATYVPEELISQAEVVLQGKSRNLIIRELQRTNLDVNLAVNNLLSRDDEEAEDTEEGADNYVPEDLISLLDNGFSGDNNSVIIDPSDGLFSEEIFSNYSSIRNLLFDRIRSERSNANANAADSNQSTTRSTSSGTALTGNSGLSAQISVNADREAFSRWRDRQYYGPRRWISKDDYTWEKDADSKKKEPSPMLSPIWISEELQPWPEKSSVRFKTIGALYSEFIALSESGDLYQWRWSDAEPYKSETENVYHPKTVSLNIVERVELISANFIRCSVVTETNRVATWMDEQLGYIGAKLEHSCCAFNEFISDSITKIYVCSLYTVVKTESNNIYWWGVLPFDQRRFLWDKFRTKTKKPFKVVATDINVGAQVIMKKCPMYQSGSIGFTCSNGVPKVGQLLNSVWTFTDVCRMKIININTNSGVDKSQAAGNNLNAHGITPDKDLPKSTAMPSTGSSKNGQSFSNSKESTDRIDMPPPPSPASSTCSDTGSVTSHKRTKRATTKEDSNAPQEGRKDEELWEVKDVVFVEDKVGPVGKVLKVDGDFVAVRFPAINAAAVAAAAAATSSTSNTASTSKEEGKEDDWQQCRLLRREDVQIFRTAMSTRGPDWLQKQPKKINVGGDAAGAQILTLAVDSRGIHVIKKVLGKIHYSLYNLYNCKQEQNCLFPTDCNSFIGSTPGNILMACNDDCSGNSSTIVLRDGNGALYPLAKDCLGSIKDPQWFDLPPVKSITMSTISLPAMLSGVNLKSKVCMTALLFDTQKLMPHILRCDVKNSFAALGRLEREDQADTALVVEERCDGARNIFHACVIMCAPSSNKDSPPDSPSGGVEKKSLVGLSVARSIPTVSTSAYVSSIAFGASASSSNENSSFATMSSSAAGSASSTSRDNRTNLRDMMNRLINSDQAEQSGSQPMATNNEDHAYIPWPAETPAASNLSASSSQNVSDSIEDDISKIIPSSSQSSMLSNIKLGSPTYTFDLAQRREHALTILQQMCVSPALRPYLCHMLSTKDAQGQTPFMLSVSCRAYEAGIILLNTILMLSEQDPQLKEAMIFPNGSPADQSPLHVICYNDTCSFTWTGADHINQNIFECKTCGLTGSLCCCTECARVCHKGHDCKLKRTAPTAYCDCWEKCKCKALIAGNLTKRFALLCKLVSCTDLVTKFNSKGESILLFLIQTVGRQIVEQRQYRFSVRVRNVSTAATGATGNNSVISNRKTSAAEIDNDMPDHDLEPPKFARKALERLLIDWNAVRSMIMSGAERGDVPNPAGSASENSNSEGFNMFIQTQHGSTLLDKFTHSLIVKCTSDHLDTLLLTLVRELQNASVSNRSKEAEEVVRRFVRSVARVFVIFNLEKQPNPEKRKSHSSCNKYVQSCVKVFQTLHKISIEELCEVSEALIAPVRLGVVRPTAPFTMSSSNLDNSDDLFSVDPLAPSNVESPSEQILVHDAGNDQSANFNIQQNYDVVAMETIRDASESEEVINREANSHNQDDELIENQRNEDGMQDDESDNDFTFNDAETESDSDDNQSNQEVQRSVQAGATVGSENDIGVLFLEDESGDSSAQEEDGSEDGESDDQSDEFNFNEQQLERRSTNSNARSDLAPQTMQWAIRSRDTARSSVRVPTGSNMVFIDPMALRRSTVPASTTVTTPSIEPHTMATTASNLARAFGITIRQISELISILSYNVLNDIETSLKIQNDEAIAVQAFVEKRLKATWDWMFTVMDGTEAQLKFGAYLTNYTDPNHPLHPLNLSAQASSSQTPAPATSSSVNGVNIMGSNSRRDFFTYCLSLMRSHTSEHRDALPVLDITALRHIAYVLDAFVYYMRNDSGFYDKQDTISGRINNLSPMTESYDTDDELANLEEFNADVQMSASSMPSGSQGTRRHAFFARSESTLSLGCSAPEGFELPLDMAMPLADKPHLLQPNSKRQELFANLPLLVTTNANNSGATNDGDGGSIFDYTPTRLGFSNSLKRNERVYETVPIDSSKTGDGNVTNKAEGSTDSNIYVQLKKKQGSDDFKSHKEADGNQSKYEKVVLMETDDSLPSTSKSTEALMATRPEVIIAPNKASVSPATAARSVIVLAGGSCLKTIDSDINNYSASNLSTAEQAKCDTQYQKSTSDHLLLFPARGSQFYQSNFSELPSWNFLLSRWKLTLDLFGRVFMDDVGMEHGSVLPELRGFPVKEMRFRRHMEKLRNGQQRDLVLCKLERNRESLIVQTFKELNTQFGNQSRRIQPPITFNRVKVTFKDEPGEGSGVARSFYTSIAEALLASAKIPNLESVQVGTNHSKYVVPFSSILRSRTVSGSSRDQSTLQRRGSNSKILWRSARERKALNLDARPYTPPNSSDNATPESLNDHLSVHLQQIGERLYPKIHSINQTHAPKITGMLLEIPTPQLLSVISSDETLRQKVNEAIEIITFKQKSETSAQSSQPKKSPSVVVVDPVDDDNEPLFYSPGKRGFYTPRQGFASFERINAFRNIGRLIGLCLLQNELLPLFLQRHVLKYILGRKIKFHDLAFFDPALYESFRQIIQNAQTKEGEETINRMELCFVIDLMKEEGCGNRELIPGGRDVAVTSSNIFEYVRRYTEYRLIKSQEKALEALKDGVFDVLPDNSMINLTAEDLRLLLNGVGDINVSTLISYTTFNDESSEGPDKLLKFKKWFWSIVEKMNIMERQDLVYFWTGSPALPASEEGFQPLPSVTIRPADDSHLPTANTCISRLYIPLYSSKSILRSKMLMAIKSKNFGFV
UniProt P18431: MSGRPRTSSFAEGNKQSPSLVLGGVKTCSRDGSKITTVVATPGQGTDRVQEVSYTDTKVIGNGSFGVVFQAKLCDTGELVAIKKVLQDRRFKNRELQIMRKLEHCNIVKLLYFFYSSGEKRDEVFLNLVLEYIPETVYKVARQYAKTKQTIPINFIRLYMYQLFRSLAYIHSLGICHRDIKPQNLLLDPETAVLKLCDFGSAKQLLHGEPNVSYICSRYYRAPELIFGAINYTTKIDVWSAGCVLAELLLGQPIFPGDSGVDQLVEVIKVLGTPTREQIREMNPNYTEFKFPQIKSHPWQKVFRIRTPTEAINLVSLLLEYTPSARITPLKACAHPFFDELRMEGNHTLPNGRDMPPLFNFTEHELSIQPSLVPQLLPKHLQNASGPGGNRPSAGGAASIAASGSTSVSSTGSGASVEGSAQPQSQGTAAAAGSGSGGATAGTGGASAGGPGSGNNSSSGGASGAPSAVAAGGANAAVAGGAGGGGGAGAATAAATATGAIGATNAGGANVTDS
UniProt P19538: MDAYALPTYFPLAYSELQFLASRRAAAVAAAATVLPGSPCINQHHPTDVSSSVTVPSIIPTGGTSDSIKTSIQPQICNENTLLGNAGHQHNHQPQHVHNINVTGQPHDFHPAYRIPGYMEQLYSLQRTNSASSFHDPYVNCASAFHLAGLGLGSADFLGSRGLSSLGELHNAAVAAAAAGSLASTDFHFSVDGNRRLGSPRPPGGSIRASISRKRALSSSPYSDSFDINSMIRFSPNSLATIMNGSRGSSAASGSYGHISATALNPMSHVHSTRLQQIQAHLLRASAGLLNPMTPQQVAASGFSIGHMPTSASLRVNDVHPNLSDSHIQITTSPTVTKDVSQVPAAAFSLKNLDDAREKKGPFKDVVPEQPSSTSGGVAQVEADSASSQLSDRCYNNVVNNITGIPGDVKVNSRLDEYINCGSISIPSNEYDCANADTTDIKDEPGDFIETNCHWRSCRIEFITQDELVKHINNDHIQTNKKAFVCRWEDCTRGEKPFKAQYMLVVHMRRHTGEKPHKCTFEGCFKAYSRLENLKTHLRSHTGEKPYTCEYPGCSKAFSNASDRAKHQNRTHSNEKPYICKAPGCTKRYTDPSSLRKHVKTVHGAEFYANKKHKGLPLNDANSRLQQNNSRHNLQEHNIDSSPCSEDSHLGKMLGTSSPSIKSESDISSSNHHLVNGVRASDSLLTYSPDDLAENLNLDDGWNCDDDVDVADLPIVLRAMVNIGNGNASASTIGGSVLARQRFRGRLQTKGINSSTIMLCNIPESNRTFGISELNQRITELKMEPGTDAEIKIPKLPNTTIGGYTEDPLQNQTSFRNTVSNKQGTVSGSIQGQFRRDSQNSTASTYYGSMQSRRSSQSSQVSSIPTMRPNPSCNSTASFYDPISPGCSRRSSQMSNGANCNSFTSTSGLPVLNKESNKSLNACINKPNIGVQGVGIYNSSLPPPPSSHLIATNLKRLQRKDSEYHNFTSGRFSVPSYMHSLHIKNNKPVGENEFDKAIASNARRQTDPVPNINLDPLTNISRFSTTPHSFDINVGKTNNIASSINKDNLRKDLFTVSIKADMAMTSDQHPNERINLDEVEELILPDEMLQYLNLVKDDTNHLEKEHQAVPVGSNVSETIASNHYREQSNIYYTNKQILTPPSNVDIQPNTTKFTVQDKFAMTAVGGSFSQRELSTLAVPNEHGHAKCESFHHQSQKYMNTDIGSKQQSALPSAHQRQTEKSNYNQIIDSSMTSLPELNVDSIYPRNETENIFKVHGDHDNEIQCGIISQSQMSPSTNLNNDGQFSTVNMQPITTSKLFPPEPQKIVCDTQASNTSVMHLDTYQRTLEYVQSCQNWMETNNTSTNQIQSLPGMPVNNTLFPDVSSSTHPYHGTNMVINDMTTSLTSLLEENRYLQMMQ
UniProt P10070: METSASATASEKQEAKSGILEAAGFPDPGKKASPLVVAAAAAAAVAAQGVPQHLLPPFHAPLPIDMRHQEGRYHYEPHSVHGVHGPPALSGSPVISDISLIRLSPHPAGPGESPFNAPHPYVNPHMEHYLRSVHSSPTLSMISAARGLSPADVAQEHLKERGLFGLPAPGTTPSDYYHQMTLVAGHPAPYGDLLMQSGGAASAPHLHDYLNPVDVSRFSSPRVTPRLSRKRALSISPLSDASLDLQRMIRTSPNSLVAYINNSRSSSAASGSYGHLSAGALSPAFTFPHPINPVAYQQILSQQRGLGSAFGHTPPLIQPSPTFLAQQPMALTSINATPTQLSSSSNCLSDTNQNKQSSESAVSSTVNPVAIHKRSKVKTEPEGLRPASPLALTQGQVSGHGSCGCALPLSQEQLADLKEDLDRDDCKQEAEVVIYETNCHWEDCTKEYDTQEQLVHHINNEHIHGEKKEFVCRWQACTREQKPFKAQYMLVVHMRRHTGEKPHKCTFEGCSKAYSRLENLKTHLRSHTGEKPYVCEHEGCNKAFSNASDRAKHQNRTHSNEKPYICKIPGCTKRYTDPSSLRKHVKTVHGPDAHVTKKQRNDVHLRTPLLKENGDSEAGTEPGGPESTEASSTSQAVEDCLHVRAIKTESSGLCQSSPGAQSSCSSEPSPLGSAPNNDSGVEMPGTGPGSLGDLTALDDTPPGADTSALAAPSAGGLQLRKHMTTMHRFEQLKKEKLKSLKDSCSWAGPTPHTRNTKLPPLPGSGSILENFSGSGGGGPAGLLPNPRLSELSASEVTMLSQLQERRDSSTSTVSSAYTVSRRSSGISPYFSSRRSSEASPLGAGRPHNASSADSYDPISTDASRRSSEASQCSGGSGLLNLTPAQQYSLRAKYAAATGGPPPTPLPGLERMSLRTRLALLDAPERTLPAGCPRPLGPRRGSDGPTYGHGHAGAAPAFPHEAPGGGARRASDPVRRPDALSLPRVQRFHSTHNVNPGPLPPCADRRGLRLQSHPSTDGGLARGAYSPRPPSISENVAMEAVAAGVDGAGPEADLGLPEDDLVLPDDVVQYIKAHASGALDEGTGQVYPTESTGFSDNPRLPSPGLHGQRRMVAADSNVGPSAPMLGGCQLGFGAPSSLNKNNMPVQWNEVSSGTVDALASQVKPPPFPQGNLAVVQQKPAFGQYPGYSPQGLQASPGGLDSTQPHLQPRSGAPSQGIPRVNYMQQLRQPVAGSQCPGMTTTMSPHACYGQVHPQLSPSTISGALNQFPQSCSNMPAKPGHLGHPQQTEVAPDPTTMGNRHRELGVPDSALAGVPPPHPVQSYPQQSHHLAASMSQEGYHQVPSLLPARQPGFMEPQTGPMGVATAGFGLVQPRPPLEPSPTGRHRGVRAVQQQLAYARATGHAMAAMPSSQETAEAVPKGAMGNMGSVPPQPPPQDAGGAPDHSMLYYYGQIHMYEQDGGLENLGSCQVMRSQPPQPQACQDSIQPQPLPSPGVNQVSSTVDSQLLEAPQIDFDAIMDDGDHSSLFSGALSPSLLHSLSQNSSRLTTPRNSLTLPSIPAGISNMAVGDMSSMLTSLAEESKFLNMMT

Columns and labels:
[1] = target: Hyperplastic Discs (Hyd), endogenous (Drosophila melanogaster (endogenous in CL8 cells)) (UniProt P51592); assay: co-IP; endogenous proteins in Drosophila CL8 cell lysate (Triton lysis buffer: 50mM Tris pH 7.5, 100mM NaCl, 2mM EDTA, 1% Triton X-100); IP with Hyd antibody (M19) or control IgG, 4°C; Western blot for Ci^155
[2] = target: Sgg-FLAG (Shaggy, the Drosophila GSK3β homologue) (Drosophila melanogaster) (UniProt P18431); assay: co-IP; S2 cells co-transfected with hyd (mutant) and sgg-FLAG constructs; FLAG-affinity purified complexes analysed by Western blot
[3] = target: HS-Hyd (HA-Strep tagged Hyperplastic Discs, wild type) (Drosophila melanogaster) (UniProt P51592); assay: pull-down; HS-Hyd purified from transfected S2 cells on Streptactin-affinity resin; control or HS-Hyd-loaded beads incubated with Sgg-FLAG expressing S2 cell lysate, washed, blotted for Sgg-FLAG; only the target purified
[4] = target: Haemagglutinin-Streptavidin-(HS)-EDD (human) (UniProt O95071); assay: pull-down; HEK293 cells transfected with HS-EDD and Myc-GLI2; Streptactin-mediated purification of HS-EDD from the lysate; Western blot for Myc-GLI2

| binding [2] | Substance | also measured |
| --- | --- | --- |
| – | Cubitus interruptus, full-length 155kDa form (Ci^155), endogenous (from UniProt P19538 1-1397) | binding [1]: binds |
| binds | HS-Hyd (HA-Strep tagged Hyperplastic Discs, wild type) (from UniProt P51592 1-2885) | – |
| binds | Hyd HECT^mt (C2854A) (from UniProt P51592 1-2885) | – |
| binds | Hyd UBR^mt (C1272A+C1274A) (from UniProt P51592 1-2885) | – |
| – | Sgg-FLAG (Shaggy, the Drosophila GSK3β homologue) (from UniProt P18431 1-514) | binding [3]: binds |
| – | full-length Myc-tagged GLI2 (from UniProt P10070 1-1586) | binding [4]: binds |
